Laboratory results published in PMC5493781.

Target: GFP-CEP19 C-terminal half (residues 85-167)
Assay: co-IP; GFP fusions of CEP19 precipitated from transfected HEK 293 lysate with goat GFP antibody on Protein G Sepharose, 4 °C; 50 mM HEPES pH 8, 100 mM KCl, 2 mM EDTA, 10% glycerol, 0.1% NP-40, 1 mM DTT; blots for endogenous proteins

B1: FGFR1OP (FOP) (protein, UniProt O95684 1-399)
chain: MAATAAAVVAEEDTELRDLLVQTLENSGVLNRIKAELRAAVFLALEEQEKVENKTPLVNESLKKFLNTKDGRLVASLVAEFLQFFNLDFTLAVFQPETSTLQGLEGRENLARDLGIIEAEGTVGGPLLLEVIRRCQQKEKGPTTGEGALDLSDVHSPPKSPEGKTSAQTTPSKIPRYKGQGKKKTSGQKAGDKKANDEANQSDTSVSLSEPKSKSSLHLLSHETKIGSFLSNRTLDGKDKAGLCPDEDDMEGDSFFDDPIPKPEKTYGLRKEPRKQAGSLASLSDAPPLKSGLSSLAGAPSLKDSESKRGNTVLKDLKLISDKIGSLGLGTGEDDDYVDDFNSTSHRSEKSEISIGEEIEEDLSVEIDDINTSDKLDDLTQDLTVSQLSDVADYLEDVA
**Q.** With B1 as the binder, how does the binding read?
**A.** The binding was “binds”.

These are yes or no findings as the source states them, for the method shown. Binding seen in cells or lysates may run through a third protein. Binding calls can cover weak binding; strength is not graded here.
